Data: publication PMC11845518
Results are given in words; binding and its absence hold for the method and conditions named. In cells and extracts the contact can be indirect. Some results given as binding are weak or reduced against the parent protein; the word gives no strength. For some assays here: Sequences can lack the tags named with a protein.

Protein sequences, listed by entry. Tags and fused reporters are not part of them.
UniProt Q13557: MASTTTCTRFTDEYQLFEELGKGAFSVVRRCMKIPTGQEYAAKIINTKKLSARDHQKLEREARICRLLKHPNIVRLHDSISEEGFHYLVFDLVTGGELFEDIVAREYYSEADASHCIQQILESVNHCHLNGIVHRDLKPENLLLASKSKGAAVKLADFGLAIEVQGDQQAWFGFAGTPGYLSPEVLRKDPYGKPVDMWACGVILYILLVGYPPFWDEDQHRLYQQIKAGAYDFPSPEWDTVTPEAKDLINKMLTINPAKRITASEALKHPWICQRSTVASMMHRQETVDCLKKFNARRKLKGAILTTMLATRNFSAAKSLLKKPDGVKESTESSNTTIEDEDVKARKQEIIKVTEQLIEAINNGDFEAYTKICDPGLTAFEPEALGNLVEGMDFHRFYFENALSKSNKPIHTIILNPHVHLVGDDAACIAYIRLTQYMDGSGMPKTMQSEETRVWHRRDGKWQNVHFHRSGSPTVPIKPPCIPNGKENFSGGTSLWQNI

Assays:
Experiment in all cases: co-IP; Flag-tagged PEAK1 and deletion mutants expressed in HEK293T; anti-FLAG M2 agarose IP from lysate (normal lysis buffer), 4 °C 2–4 h; Western blot for CAMK2D or CAMK2G
[1] = biological target: Flag-tagged PEAK1 WT (HEK293T) (human) (UniProt Q9H792)
[2] = biological target: Flag-tagged PEAK1 Δ301–324 (human) (UniProt Q9H792)
[3] = biological target: Flag-tagged PEAK1 Δ261–300 (human) (UniProt Q9H792)
[4] = biological target: T1, Flag-tagged PEAK1 N-term (1-324 amino acids) (human) (UniProt Q9H792)
T1 sequence: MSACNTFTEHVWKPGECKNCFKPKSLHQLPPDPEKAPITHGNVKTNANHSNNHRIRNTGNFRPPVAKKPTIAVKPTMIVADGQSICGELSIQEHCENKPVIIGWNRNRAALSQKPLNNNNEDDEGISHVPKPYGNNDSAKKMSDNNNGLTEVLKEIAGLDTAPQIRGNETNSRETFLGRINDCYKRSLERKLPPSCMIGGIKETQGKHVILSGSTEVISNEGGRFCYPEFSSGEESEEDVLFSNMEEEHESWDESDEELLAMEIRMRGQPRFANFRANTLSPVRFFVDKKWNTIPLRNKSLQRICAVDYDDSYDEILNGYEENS

[5] = biological target: Flag-tagged PEAK1 Δ261–324 (human) (UniProt Q9H792)

binding [1]: binds | binding [2]: no binding | binding [3]: no binding | binding [4]: no binding | binding [5]: no binding
Substance: calcium/calmodulin-dependent protein kinase 2 (CAMK2)D, endogenous in HEK293T (from UniProt Q13557 1-499) (enzyme)
